# Only a part is listed here, and it is no random draw. At the low end of the ranking, values are background and their order means little.
# Protein sequences, listed by entry. Tags and fused reporters are not part of them. Lines headed by an entry give the natural chain unless they say otherwise; changes in a name come on top.
# UniProt Q01892: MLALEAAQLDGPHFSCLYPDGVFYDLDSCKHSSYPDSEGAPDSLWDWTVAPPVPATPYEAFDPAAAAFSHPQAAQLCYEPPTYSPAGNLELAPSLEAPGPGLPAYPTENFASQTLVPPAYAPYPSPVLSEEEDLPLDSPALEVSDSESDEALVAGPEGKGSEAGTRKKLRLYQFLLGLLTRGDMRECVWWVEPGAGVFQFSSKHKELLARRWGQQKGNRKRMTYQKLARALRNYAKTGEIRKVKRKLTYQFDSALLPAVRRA
# UniProt P41161: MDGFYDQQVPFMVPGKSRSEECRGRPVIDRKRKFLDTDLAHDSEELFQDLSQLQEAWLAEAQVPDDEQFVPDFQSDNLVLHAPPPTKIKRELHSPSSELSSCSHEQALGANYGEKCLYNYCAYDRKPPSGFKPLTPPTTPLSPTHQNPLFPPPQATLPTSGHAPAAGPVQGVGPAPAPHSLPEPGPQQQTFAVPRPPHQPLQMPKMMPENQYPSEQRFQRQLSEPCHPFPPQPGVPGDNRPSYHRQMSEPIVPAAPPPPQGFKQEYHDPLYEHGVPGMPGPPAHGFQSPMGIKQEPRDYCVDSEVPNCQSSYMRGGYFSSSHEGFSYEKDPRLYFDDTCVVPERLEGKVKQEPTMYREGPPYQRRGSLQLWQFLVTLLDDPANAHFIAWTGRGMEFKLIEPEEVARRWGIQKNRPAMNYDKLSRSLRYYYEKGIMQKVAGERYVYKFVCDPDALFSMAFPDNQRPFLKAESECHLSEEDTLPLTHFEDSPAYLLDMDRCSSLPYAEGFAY
# UniProt Q99607: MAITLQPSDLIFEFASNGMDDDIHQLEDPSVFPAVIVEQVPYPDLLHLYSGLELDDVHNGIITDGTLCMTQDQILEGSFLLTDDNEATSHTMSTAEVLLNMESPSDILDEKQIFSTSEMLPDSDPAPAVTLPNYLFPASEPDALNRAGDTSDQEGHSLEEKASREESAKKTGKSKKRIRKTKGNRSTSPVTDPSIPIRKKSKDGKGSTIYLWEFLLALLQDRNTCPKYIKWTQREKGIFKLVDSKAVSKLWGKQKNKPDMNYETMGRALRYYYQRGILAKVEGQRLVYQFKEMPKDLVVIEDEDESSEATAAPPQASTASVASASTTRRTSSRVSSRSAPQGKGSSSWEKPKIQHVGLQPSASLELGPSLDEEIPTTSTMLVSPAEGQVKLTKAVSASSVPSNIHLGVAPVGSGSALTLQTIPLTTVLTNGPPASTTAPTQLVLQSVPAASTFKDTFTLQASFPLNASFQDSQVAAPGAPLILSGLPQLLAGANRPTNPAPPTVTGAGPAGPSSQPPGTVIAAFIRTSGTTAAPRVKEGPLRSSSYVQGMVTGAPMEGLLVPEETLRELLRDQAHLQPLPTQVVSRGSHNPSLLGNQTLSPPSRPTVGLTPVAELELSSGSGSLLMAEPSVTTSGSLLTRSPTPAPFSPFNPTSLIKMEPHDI
# Legend:
# Assay in all cases: DAPPL (digital affinity profiling via proximity ligation, sequencing)
# Conditions in all cases: 10 mM Tris-HCl pH 7.5, 50 mM NaCl, 1 mM DTT, 4% glycerol, room temperature, 30 min; GST-TFs on glutathione beads, 16-mer random dsDNA library, 0.1% …; high values mean tight binding; double strand, one strand shown; scale: fold enrichment (6-mer frequency, TF over GST control)
# FLI1 = target: T1, FLI1 (UniProt Q01543)
# T1 sequence: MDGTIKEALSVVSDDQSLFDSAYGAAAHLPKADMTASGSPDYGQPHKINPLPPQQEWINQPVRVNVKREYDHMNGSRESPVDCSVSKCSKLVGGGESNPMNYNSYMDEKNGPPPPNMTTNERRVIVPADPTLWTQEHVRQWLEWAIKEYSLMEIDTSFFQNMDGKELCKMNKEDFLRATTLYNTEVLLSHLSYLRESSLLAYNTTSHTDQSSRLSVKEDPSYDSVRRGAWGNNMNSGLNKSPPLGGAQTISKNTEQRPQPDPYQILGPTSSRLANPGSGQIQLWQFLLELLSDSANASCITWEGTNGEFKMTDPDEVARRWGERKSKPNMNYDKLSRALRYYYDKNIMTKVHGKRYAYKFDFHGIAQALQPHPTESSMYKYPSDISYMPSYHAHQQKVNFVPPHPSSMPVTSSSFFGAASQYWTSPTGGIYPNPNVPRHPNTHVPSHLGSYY
# EHF = target: T2, EHF (UniProt Q9NZC4)
# T2 sequence: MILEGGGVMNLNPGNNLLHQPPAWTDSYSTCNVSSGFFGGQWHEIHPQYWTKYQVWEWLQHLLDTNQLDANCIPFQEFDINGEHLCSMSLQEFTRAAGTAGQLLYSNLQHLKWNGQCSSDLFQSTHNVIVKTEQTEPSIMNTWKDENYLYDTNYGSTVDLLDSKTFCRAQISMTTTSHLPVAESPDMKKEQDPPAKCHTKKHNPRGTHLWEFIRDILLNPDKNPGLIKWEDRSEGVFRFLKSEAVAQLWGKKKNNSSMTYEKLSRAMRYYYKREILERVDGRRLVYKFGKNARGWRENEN
# SPIB = SPIB (UniProt Q01892)
# ETV5 = ETV5 (UniProt P41161)
# ELF4 = ELF4 (UniProt Q99607)
# ETV2 = target: T3, ETV2 (UniProt O00321)
# T3 sequence: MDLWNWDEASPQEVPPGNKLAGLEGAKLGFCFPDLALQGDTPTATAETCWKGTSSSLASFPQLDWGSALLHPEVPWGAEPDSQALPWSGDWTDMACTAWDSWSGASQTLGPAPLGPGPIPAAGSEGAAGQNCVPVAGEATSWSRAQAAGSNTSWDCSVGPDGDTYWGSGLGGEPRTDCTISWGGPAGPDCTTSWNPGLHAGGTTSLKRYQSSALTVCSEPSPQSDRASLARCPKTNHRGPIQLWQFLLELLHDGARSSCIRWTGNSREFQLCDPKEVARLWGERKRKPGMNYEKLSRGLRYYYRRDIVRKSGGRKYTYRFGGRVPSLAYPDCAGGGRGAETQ
# ETV3L = target: T4, ETV3L (UniProt Q6ZN32)
# T4 sequence: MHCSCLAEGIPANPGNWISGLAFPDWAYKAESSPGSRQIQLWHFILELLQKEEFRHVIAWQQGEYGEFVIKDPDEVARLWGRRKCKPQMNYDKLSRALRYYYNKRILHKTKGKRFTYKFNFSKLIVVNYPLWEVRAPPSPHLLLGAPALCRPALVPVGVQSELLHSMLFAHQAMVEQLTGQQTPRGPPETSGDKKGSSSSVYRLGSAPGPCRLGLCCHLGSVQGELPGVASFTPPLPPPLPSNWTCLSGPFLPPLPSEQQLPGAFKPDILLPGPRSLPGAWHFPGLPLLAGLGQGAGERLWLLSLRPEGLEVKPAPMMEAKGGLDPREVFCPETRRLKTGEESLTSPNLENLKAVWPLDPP
Sequence,binding signal (FLI1),binding signal (EHF),binding signal (SPIB),binding signal (ETV5),binding signal (ELF4),binding signal (ETV2),binding signal (ETV3L)
CGTGCC,0.814,0.786,0.885,0.883,0.807,0.914,0.821
CAGTGT,0.706,0.684,0.673,0.707,0.722,0.693,0.757
CGGGTC,0.644,0.743,0.682,0.712,0.713,0.71,0.706
GTGATT,0.723,0.728,0.77,0.724,0.746,0.652,0.773
TATCGG,0.804,0.756,0.775,0.819,0.848,0.815,0.824
TTGAGT,0.707,0.677,0.687,0.669,0.719,0.676,0.64
GTAGTG,0.84,0.806,0.683,0.764,0.804,0.73,0.8
GGAGAC,0.152,0.15,0.145,0.148,0.135,0.153,0.15
AGGTCG,0.53,0.534,0.522,0.528,0.532,0.601,0.529
GTCCGT,0.495,0.5,0.515,0.473,0.504,0.544,0.497
CGGTGA,0.476,0.445,0.403,0.462,0.463,0.434,0.458
GGTGAA,0.773,0.77,0.684,0.787,0.702,0.729,0.78
GACGTC,0.869,0.887,0.983,0.844,0.835,0.855,0.858
GAGAGT,0.359,0.369,0.327,0.377,0.361,0.384,0.355
AGGTAG,0.68,0.683,0.698,0.638,0.644,0.723,0.69
GAGCAC,0.771,0.75,0.689,0.698,0.719,0.69,0.798
GCCCGT,0.728,0.571,0.701,0.642,0.628,0.638,0.636
CGGCGC,0.618,0.616,0.649,0.547,0.651,0.597,0.695
TGGCGG,0.827,0.757,0.834,0.766,0.698,0.965,0.811
GCAGGC,0.656,0.676,0.727,0.745,0.7,0.786,0.652

Sequence,binding signal (FLI1),binding signal (EHF),binding signal (SPIB),binding signal (ETV5),binding signal (ELF4),binding signal (ETV2),binding signal (ETV3L)
GTACGG,0.793,0.869,0.864,0.896,0.79,0.946,0.837
AGGGGA,0.582,0.592,0.61,0.658,0.555,0.643,0.54
CAGCAA,0.945,0.968,0.954,0.962,0.952,0.981,0.916
GAGAAG,0.711,0.717,0.755,0.733,0.725,0.711,0.679
GTGCAG,0.604,0.75,0.802,0.735,0.791,0.738,0.718
GCATGC,0.956,0.948,0.839,0.828,0.865,0.766,0.957
CGTCGG,0.389,0.44,0.473,0.426,0.416,0.459,0.449
GCATCG,0.731,0.783,0.786,0.794,0.838,0.766,0.774
AGCGAG,0.704,0.632,0.586,0.641,0.652,0.756,0.633
GAGGCT,0.597,0.603,0.587,0.585,0.621,0.615,0.638
CAACGG,0.925,0.988,0.991,0.975,0.991,0.882,0.955
CCATCG,0.874,0.813,0.781,0.802,0.857,0.829,0.933
GACGGT,0.467,0.457,0.461,0.488,0.415,0.588,0.501
TGTGAG,0.365,0.339,0.327,0.338,0.337,0.313,0.339
TCGTGG,0.67,0.734,0.659,0.672,0.712,0.723,0.711
AGAGGT,0.762,0.868,0.886,0.892,0.852,0.775,0.756
GTGAAG,0.567,0.598,0.601,0.572,0.543,0.521,0.564
GGGGAT,0.658,0.647,0.614,0.668,0.596,0.535,0.65
GTCGAT,0.739,0.668,0.746,0.708,0.772,0.699,0.654
GCGGAC,0.738,0.735,0.625,0.738,0.673,0.75,0.753

# Some of the entries so far, bar-delimited.
Sequence | binding signal (FLI1) | binding signal (EHF) | binding signal (SPIB) | binding signal (ETV5) | binding signal (ELF4) | binding signal (ETV2) | binding signal (ETV3L)
GAGAAG | 0.711 | 0.717 | 0.755 | 0.733 | 0.725 | 0.711 | 0.679
TGTGAG | 0.365 | 0.339 | 0.327 | 0.338 | 0.337 | 0.313 | 0.339

# (cont.)

Sequence,binding signal (FLI1),binding signal (EHF),binding signal (SPIB),binding signal (ETV5),binding signal (ELF4),binding signal (ETV2),binding signal (ETV3L)
CCAGTA,0.659,0.732,0.688,0.658,0.71,0.694,0.665
AGGGCC,0.923,0.986,0.877,0.935,0.945,0.957,0.856
GGAGAG,0.277,0.276,0.23,0.289,0.29,0.244,0.261
AGAGGA,0.601,0.688,0.635,0.655,0.62,0.655,0.633
GCAGTT,0.873,0.88,0.895,0.832,0.835,0.945,0.821
CAGACG,0.488,0.493,0.464,0.448,0.49,0.551,0.461
GCCGGG,0.441,0.378,0.371,0.371,0.389,0.398,0.371
GTAGAG,0.558,0.591,0.579,0.582,0.616,0.6,0.573
AGCAGG,0.876,0.863,0.861,0.951,0.899,0.953,0.81
AAGAGA,0.798,0.887,0.793,0.841,0.858,0.798,0.872
ATCGGG,0.49,0.447,0.448,0.459,0.457,0.434,0.454
CGGACG,0.487,0.486,0.429,0.443,0.42,0.43,0.455
CGCAAG,0.853,0.809,0.771,0.77,0.857,0.715,0.821
GAGACT,0.422,0.358,0.382,0.408,0.4,0.384,0.39
AGCCGG,0.612,0.595,0.648,0.623,0.533,0.536,0.548
ACGGAC,0.867,0.859,0.877,0.823,0.861,0.882,0.852
ACTAGT,0.887,0.908,0.84,0.896,0.882,0.947,0.856
AGGACA,0.798,0.833,0.807,0.845,0.811,0.779,0.788
TCAGTG,0.757,0.799,0.78,0.744,0.753,0.757,0.83
CATGAG,0.63,0.651,0.644,0.619,0.689,0.58,0.717

# Reference: PMC7862700
